What all share (assay): DAPPL (digital affinity profiling via proximity ligation, sequencing)
Holding throughout (conditions): 10 mM Tris-HCl pH 7.5, 50 mM NaCl, 1 mM DTT, 4% glycerol, room temperature, 30 min; GST-TFs on glutathione beads, 16-mer random dsDNA library, 0.1% …; high values mean tight binding; double strand, one strand shown; scale: fold enrichment (6-mer frequency, TF over GST control)

One experiment has as its target T1, ELK1 (UniProt P19419).
T1 sequence: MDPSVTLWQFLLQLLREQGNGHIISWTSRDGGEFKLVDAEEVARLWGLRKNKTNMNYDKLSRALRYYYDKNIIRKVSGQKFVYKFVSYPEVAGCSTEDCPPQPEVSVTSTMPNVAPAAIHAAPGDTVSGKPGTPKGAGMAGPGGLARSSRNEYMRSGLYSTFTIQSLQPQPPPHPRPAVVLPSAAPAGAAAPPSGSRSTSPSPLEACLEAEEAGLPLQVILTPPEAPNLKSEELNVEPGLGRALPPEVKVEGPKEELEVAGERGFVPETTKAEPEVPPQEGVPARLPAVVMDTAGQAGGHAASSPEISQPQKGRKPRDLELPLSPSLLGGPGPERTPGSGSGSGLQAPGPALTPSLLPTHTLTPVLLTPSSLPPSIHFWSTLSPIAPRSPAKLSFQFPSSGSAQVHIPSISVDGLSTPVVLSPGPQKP

Another experiment concerns the target T2, ELK3 (UniProt P41970).
T2 sequence: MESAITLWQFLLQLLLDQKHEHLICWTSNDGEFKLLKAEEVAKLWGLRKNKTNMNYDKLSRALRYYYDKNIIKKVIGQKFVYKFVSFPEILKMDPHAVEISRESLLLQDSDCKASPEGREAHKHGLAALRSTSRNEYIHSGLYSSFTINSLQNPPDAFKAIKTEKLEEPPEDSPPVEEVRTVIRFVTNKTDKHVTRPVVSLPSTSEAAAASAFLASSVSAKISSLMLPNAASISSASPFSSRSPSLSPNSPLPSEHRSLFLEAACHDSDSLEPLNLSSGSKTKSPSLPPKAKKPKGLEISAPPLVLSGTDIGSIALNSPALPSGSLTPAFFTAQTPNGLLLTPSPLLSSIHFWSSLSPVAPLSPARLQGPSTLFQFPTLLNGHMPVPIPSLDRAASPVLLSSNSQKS

Another experiment concerns the target T3, SPIC (UniProt Q8N5J4).
T3 sequence: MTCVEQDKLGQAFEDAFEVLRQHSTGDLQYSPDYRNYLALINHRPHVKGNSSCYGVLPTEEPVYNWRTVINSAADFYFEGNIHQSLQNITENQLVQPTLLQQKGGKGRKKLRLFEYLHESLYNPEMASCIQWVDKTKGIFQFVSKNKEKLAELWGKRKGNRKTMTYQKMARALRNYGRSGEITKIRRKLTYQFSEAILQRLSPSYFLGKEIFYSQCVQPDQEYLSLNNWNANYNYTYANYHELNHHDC

The target in the next experiment is T4, ETS2 (UniProt P15036).
T4 sequence: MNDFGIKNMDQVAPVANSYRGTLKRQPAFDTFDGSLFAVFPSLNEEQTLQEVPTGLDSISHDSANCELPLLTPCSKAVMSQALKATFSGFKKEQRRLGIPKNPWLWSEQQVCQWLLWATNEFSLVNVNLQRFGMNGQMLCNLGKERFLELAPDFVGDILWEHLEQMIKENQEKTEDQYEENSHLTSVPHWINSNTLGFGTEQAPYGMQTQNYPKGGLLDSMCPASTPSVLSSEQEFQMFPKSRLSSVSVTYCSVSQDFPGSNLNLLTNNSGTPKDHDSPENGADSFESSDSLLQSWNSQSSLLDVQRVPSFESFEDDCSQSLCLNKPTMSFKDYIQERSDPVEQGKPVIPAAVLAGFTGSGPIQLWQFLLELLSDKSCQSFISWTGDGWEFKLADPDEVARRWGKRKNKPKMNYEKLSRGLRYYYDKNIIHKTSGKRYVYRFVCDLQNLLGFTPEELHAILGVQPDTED

The target in another experiment is T5, ETV3 (UniProt P41162-2).
T5 sequence: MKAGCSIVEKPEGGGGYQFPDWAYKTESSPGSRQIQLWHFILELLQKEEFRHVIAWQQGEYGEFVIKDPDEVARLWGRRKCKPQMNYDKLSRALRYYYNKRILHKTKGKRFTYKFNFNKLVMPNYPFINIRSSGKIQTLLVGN

This passage reports binding signal results from PMC7862700.

The entries are a selection whose mix differs from that of the whole data set. At the low end of the ranking, values are background and their order means little.

Turning to GATAGG, the binding signal in the experiment with ELK1 was found to be 0.806; with ELK3, 0.874; with SPIC it was 0.893; in the experiment with ETS2, 0.855; with ETV3, 0.893.
In the case of CGTAGA, the binding signal with ELK1 worked out at 0.714; with ELK3, 0.702; with SPIC, 0.775; with ETS2 it was 0.699; with ETV3, 0.645.
For TACGTG, in that order: 0.704, 0.701, 0.673, 0.763 and 0.667.
In the case of GCACAG, the binding signal with ELK1 was found to be 0.747; with ELK3 it was 0.725; in the experiment with SPIC, 0.786; with ETS2, 0.772; in the experiment with ETV3, 0.743.
For GTAAGT, in that order: 0.728, 0.774, 0.754, 0.706 and 0.755.
On to GGCCAT, for which the binding signal with ELK1 came to 0.889; in the experiment with ELK3, 0.847; with SPIC it was 0.842; in the experiment with ETS2, 0.762; in the experiment with ETV3, 0.875.
GCGGAC: the binding signal in the experiment with ELK1 amounted to 0.683; with ELK3 it was 0.659; in the experiment with SPIC it was 0.58; in the experiment with ETS2, 0.7; in the experiment with ETV3, 0.642.
The like results for AGACCC were, in that order, 0.745, 0.618, 0.637, 0.736 and 0.659.
The like results for CCGAGT were, in that order, 0.928, 0.979, 0.96, 0.913 and 0.924.
Consider GCTGAG, for which the binding signal with ELK1 came to 0.654; with ELK3, 0.694; in the experiment with SPIC, 0.631; with ETS2, 0.667; with ETV3 it was 0.627.
For CAGGCT, in that order: 0.819, 0.856, 0.777, 0.822 and 0.735.
The like results for GCCGGT were, in that order, 0.709, 0.553, 0.601, 0.641 and 0.724.
The like results for ACCATG were, in that order, 0.868, 0.89, 0.792, 0.81 and 0.846.
Take GCGTGT: the binding signal with ELK1 stood at 0.585; with ELK3, 0.502; in the experiment with SPIC, 0.599; with ETS2, 0.583; in the experiment with ETV3, 0.592.
For ACGGGA, in that order: 0.504, 0.592, 0.518, 0.533 and 0.56.
For GCGTGG, in that order: 0.512, 0.583, 0.503, 0.539 and 0.551.
The like results for GGCAAG were, in that order, 0.627, 0.855, 0.687, 0.666 and 0.709.
For the sequence ACAGTA, the binding signal in the experiment with ELK1 was 0.894; with ELK3, 0.811; with SPIC it was 0.929; in the experiment with ETS2, 0.905; in the experiment with ETV3, 0.809.
The like results for CGGGTT were, in that order, 0.896, 0.737, 1, 0.971 and 0.945.
For GTCATA, in that order: 0.741, 0.787, 0.744, 0.785 and 0.705.
The like results for GCCATA were, in that order, 0.802, 0.967, 0.873, 0.841 and 0.889.
Take AGTGCG: the binding signal with ELK1 was 0.886; with ELK3 it was 0.894; in the experiment with SPIC, 0.918; with ETS2 it was 0.834; with ETV3, 0.874.
For ACGTGC, in that order: 0.645, 0.642, 0.734, 0.721 and 0.63.
Regarding AAGGCG, the binding signal with ELK1 is 0.718; with ELK3, 0.729; in the experiment with SPIC it was 0.708; with ETS2 it was 0.641; with ETV3 it was 0.705.
For AACCAG, in that order: 0.844, 0.773, 0.847, 0.894 and 0.864.
The like results for GCCAGG were, in that order, 0.43, 0.448, 0.421, 0.428 and 0.462.
The like results for GCGCAA were, in that order, 0.853, 0.804, 0.847, 0.815 and 0.856.
On to ACGTAG, for which the binding signal with ELK1 was 0.755; in the experiment with ELK3, 0.814; in the experiment with SPIC, 0.827; with ETS2 it was 0.796; with ETV3, 0.808.
For TAAGTG, in that order: 0.721, 0.853, 0.942, 0.766 and 0.789.
The like results for GCACCG were, in that order, 0.762, 0.764, 0.767, 0.731 and 0.723.
